Results deposited as PubChem BioAssay AID1508597 (Cure First, 2020).
Assay: 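Survival screen with siRNA in ovarian cancer cells derived from patients, with or without rucaparib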 (primary screen). Cells: human ovarian carcinoma lines grown from tumours: OCI-P5x (papillary serous) and OCI-C5x (clear cell). Reagent: siRNA pool against human genes, 1.25 pmol siRNA per well. Time to read-out: 72 h or 96 h, depending on the cell culture. Conditions: rucaparib 20 µM (about IC30) or vehicle, present until read-out. Measured: 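ATP luminescence measured at 72 or 96 h according to the culture, then normalised and expressed as percent viability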. Reading the numbers: viability, normalised: higher = more viable cells remaining. Hit rule: 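a well counts as a hit if its normalised viability is under 80 percent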. Calls: active = viability under 80%; inactive = viability 80% or more.
In all, the deposit lists about 2,100 reagents; shown is a random part of them. 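Calls flag viability under 80% in either arm, not effects specific to rucaparib; the reference for percent is not stated.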 Entries without a mark were called inactive. A reagent listed more than once was tested more than once; the source does not tell the runs apart. No sequences are given here. Not given: the 100% reference.

no.	gene	rucaparib or vehicle	cell line	technical replicate	viability, normalised (%)
1	EFNA5	Rucaparib	OCI-C5x (clear cell)	1	39.1 (active)
2	EFNA5	Rucaparib	OCI-C5x (clear cell)	2	60 (active)
3	EFNA5	Rucaparib	OCI-C5x (clear cell)	3	55.3 (active)
4	EFNA5	Rucaparib	OCI-P5x (serous)	1	84.9
5	EFNA5	Rucaparib	OCI-P5x (serous)	2	50 (active)
6	EFNA5	Rucaparib	OCI-P5x (serous)	3	75.3 (active)
7	EFNA5	Vehicle	OCI-C5x (clear cell)	1	62.3 (active)
8	EFNA5	Vehicle	OCI-C5x (clear cell)	2	64.9 (active)
9	EFNA5	Vehicle	OCI-C5x (clear cell)	3	40.1 (active)
10	EFNA5	Vehicle	OCI-P5x (serous)	1	61.4 (active)
11	EFNA5	Vehicle	OCI-P5x (serous)	2	79.2 (active)
12	EFNA5	Vehicle	OCI-P5x (serous)	3	76.8 (active)
13	SIRT7	Rucaparib	OCI-C5x (clear cell)	1	38.5 (active)
14	SIRT7	Rucaparib	OCI-C5x (clear cell)	2	39.2 (active)
15	SIRT7	Rucaparib	OCI-C5x (clear cell)	3	33.9 (active)
16	SIRT7	Rucaparib	OCI-P5x (serous)	1	37.5 (active)
17	SIRT7	Rucaparib	OCI-P5x (serous)	2	44.6 (active)
18	SIRT7	Rucaparib	OCI-P5x (serous)	3	47.8 (active)
19	SIRT7	Vehicle	OCI-C5x (clear cell)	1	31.4 (active)
20	SIRT7	Vehicle	OCI-C5x (clear cell)	2	38.5 (active)
21	SIRT7	Vehicle	OCI-C5x (clear cell)	3	39.2 (active)
22	SIRT7	Vehicle	OCI-P5x (serous)	1	50 (active)
23	SIRT7	Vehicle	OCI-P5x (serous)	2	50.3 (active)
24	SIRT7	Vehicle	OCI-P5x (serous)	3	59.1 (active)
25	TP53	Rucaparib	OCI-C5x (clear cell)	1	98.2
26	TP53	Rucaparib	OCI-C5x (clear cell)	1	59.5 (active)
27	TP53	Rucaparib	OCI-C5x (clear cell)	1	57.1 (active)
28	TP53	Rucaparib	OCI-C5x (clear cell)	2	67.9 (active)
29	TP53	Rucaparib	OCI-C5x (clear cell)	2	69.8 (active)
30	TP53	Rucaparib	OCI-C5x (clear cell)	2	67.3 (active)
31	TP53	Rucaparib	OCI-C5x (clear cell)	3	70.2 (active)
32	TP53	Rucaparib	OCI-C5x (clear cell)	3	49.9 (active)
33	TP53	Rucaparib	OCI-C5x (clear cell)	3	71.2 (active)
34	TP53	Rucaparib	OCI-P5x (serous)	1	70.3 (active)
35	TP53	Rucaparib	OCI-P5x (serous)	1	119
36	TP53	Rucaparib	OCI-P5x (serous)	1	45.5 (active)
37	TP53	Rucaparib	OCI-P5x (serous)	2	101
38	TP53	Rucaparib	OCI-P5x (serous)	2	43.4 (active)
39	TP53	Rucaparib	OCI-P5x (serous)	2	92.6
40	TP53	Rucaparib	OCI-P5x (serous)	3	70.4 (active)
41	TP53	Rucaparib	OCI-P5x (serous)	3	62.9 (active)
42	TP53	Rucaparib	OCI-P5x (serous)	3	95.5
43	TP53	Vehicle	OCI-C5x (clear cell)	1	66 (active)
44	TP53	Vehicle	OCI-C5x (clear cell)	1	49.9 (active)
45	TP53	Vehicle	OCI-C5x (clear cell)	1	25.9 (active)
46	TP53	Vehicle	OCI-C5x (clear cell)	2	71.3 (active)
47	TP53	Vehicle	OCI-C5x (clear cell)	2	48.9 (active)
48	TP53	Vehicle	OCI-C5x (clear cell)	2	63.5 (active)
49	TP53	Vehicle	OCI-C5x (clear cell)	3	51.2 (active)
50	TP53	Vehicle	OCI-C5x (clear cell)	3	56.4 (active)
51	TP53	Vehicle	OCI-C5x (clear cell)	3	76.9 (active)
52	TP53	Vehicle	OCI-P5x (serous)	1	57.9 (active)
53	TP53	Vehicle	OCI-P5x (serous)	1	74.2 (active)
54	TP53	Vehicle	OCI-P5x (serous)	1	94.5
55	TP53	Vehicle	OCI-P5x (serous)	2	97.5
56	TP53	Vehicle	OCI-P5x (serous)	2	74.6 (active)
57	TP53	Vehicle	OCI-P5x (serous)	2	86.4
58	TP53	Vehicle	OCI-P5x (serous)	3	69.3 (active)
59	TP53	Vehicle	OCI-P5x (serous)	3	76.6 (active)
60	TP53	Vehicle	OCI-P5x (serous)	3	97.4

Looked up above:
For “viability, normalised (%)”, SIRT7, rucaparib or vehicle Rucaparib, cell line OCI-P5x (serous), technical replicate 3 has 47.8 (active)
Value for EFNA5, rucaparib or vehicle Vehicle, cell line OCI-P5x (serous), technical replicate 3 under “viability, normalised (%)”: 76.8 (active)
For “viability, normalised (%)”, SIRT7, rucaparib or vehicle Vehicle, cell line OCI-C5x (clear cell), technical replicate 3 is entered as 39.2 (active)
Under “viability, normalised (%)”, SIRT7, rucaparib or vehicle Vehicle, cell line OCI-P5x (serous), technical replicate 3 reads 59.1 (active)
